Laboratory results taken from PubChem BioAssay AID540256 (National Center for Advancing Translational Sciences (NCATS), 2011).
Hit rate of the full screen: of about 300,000 compounds, about 3,700 (1.2%) were called active. The inconclusive results got no clear call from the source; some entries with a clear call stand among them for comparison. The call rests on the fitted dose curve; tested in HEK293 cells. Potencies of inconclusive entries are doubtful fits and often do not repeat.
On the % scale 0 is the no-effect control and ±100 the full control effect; potency means the concentration at half of the fitted maximal effect.

Assay: qHTS for Inhibitors of binding or entry into cells for Lassa Virus; further: nearly all actives have a fitted effect of over 50% in size
Conditions: Lassa virus pseudotype entry inhibition, cell reporter; activity change, negative = inhibition: at 37.9 µM (top of the series) unless noted
In the case of `S=P(NCCNP(=S)(N1CC1)N1CC1)(N1CC1)N1CC1`, the Potency is reported as inconclusive: 3.98 µM [inhibitor, partial curve, poor fit].
With `CCOc1ccccc1C(=O)N[C@H](C(=O)Nc1nc2c(s1)CCCC2)C(C)C` the Potency was inconclusive: 35.5 µM [inhibitor, single point].
For `O=C(Nc1ccc(-c2nc3ccccc3o2)cc1)C1CCCO1` (stereo not given), the Potency was inconclusive: 20.6 µM [inhibitor, single point].
In the case of `COc1ccccc1CNC(=O)CS(=O)(=O)Cc1nc(-c2ccccc2C)oc1C`, the “activity change, negative = inhibition” value is reported as inactive: 25.5% [at 46.1 µM].
With `Cc1nnc(N/N=C/c2cccc(C(F)(F)F)c2)n1N` the “activity change, negative = inhibition” value was inactive: 1.03%.
In the case of `COc1cccc(/C=N/Nc2ncc(C(F)(F)F)cc2Cl)c1O`, the Potency is reported as active: 7.94 µM.
In the case of `Cc1ccccc1Nc1nnc(SCc2cc(=O)n3ccsc3n2)s1`, the “activity change, negative = inhibition” value is reported as inactive: -4.03%.
For `Cc1ccc(/C=N/NC(=O)C2COc3ccccc3O2)s1` (stereo not given), the Potency was inconclusive: 0.562 µM [inhibitor, single point].
For `CN(C1CCCCC1)S(=O)(=O)c1ccc2c(c1)c(=O)c(C(=O)NCc1ccc(Cl)cc1)cn2C`, the “activity change, negative = inhibition” value was inactive: 9.08% [at 46.1 µM].
In the case of `Cc1cnc(NC(=O)/C=C/c2ccc(Br)o2)s1`, the “activity change, negative = inhibition” value is reported as inactive: 1.24% [at 46.1 µM].
In the case of `O=C(CSc1nc2ccccc2nc1SCC(=O)N1CCCCC1)N1CCCCC1`, the Potency is reported as inconclusive: 14.6 µM [inhibitor, partial curve].
In the case of `Cc1ccc(C)c(Nc2nn3c(=O)c4ccc(C(=O)NCc5cccs5)cc4nc3s2)c1`, the Potency is reported as inconclusive: 3.55 µM [inhibitor, full curve].
With `COc1cccc(N2CCN(c3ncnc4onc(-c5ccc(Cl)cc5)c34)CC2)c1` the Potency was inconclusive: 35.5 µM [inhibitor, single point].
With `CCOC(=O)Cn1nnnc1C(CC)N(Cc1ccccc1)Cc1cc2cc(C)ccc2[nH]c1=O` (stereo not given) the “activity change, negative = inhibition” value was inactive: -6.54%.
In the case of `COc1ccc(C(C(=O)NC2CCCC2)N(CCC(C)C)C(=O)CCC(=O)Nc2cc(C)on2)cc1` (stereo not given), the Potency is reported as inconclusive: 12.6 µM [inhibitor, partial curve].
For `Cc1ccc(S(=O)(=O)/N=C(\N)Nc2nc(C)c3cc(C)ccc3n2)cc1`, the Potency was inconclusive: 0.82 µM [inhibitor, full curve].
For `CCOc1ccc(NC(=O)C23CC4CC(C2)CC(c2ccccc2)(C4)C3)cc1`, the “activity change, negative = inhibition” value was inactive: -5.89%.
For `CCOC(=O)c1sc(=NC(=O)c2ccc(OC)c(OC)c2)n(C)c1C`, the “activity change, negative = inhibition” value was inactive: -3.72%.
For `Cc1ccc(-n2c(=O)c3ccccc3n(CC(=O)Nc3cccc(C(F)(F)F)c3)c2=O)cc1`, the “activity change, negative = inhibition” value was inactive: -30.1% [at 46.1 µM].
In the case of `CSc1ccc(C=NNc2ccc(S(=O)(=O)Nc3ccccc3C(=O)O)cc2[N+](=O)[O-])cc1`, the Potency is reported as inconclusive: 35.5 µM [inhibitor, single point].
